The list shows a part of the results.
Compound: Cc1cc(ccc1-c1ccccc1)C(=O)N1CCCN(CC1)C(=O)CCl [compound 10]
Assay: probe-labelled cysteine peptide fold change vs DMSO (competition) (log2 fold change); higher = less target engagement (more negative = stronger competition)
Conditions: THP-1, incubation time: 4 h
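Also: competitive profiling in live THP-1 cells: cysteine peptides tagged with an iodoacetamide desthiobiotin (IA-DTB) probe, intensity after compound treatment relative to DMSO-treated cells.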

By UniProt entry, the sequences of proteins in these tests, tags left out. Where a name states a change or a piece, a line headed by the entry shows the natural chain unless it says otherwise.
UniProt Q13616, whole entry, looked up: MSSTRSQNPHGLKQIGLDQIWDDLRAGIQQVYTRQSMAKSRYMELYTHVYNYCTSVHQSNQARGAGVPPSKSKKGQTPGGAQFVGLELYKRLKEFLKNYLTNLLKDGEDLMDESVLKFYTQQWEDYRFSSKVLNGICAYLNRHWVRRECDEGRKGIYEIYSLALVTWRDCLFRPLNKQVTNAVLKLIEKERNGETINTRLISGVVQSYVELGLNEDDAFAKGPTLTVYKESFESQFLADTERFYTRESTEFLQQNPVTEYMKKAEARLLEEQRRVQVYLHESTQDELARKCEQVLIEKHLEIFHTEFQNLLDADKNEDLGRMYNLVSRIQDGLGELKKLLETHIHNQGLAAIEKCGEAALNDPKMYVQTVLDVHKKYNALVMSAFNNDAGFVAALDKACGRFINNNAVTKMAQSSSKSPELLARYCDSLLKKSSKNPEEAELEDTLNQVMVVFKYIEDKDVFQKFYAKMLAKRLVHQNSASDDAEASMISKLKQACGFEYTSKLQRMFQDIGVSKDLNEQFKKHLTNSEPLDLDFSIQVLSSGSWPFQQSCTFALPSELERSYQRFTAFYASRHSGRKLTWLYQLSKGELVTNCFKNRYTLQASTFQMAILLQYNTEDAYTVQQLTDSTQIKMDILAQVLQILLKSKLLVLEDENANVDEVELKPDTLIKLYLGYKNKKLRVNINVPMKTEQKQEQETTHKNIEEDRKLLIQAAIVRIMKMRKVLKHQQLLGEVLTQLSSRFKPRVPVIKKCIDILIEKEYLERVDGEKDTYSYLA
UniProt Q13620, whole entry, looked up: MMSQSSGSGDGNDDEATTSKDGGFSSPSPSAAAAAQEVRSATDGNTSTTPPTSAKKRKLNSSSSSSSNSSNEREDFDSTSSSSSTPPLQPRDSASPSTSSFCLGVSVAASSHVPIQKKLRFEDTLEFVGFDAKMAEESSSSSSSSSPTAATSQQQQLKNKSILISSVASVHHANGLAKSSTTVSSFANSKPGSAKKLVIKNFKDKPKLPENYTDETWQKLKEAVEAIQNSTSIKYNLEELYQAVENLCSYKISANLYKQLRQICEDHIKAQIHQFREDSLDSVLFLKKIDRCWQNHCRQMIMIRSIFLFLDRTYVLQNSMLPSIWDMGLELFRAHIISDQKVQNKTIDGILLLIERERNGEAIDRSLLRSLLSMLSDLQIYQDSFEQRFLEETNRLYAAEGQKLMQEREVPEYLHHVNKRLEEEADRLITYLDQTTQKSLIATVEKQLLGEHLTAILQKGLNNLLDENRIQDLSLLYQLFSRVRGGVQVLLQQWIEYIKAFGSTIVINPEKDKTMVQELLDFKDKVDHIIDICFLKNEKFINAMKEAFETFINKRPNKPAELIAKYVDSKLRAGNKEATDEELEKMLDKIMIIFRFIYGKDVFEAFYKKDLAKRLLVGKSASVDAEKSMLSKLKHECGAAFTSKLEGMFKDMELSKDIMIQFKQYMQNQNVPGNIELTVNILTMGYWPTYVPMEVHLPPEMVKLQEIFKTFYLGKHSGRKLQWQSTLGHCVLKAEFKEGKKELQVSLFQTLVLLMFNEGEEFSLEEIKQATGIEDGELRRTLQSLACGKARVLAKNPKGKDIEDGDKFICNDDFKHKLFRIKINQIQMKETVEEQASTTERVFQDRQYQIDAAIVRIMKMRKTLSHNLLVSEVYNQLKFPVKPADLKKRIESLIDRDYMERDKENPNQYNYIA
UniProt P07711: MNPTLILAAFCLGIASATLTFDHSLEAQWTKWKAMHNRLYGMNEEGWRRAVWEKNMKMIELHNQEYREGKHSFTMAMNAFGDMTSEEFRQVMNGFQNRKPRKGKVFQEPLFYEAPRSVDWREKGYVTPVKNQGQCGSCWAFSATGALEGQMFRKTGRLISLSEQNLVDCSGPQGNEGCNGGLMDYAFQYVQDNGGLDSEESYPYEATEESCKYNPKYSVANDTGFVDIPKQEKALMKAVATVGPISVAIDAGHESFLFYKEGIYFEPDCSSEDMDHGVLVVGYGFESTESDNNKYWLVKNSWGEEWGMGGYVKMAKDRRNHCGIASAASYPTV
UniProt Q5TAQ9: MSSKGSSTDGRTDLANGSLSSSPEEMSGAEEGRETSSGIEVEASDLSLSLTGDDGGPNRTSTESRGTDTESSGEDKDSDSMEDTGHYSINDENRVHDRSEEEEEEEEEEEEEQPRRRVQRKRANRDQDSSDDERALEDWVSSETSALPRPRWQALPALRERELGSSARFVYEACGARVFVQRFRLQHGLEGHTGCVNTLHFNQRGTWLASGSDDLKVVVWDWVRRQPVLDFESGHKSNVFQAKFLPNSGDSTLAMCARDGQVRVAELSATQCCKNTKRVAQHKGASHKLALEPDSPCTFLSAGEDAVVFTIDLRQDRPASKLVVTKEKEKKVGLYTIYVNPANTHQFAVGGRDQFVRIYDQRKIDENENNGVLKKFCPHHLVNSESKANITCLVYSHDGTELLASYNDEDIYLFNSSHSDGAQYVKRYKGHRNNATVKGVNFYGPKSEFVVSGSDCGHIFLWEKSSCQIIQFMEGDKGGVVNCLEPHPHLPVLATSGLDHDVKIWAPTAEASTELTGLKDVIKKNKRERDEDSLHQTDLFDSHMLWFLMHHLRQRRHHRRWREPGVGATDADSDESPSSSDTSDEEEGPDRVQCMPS
UniProt Q96EP5: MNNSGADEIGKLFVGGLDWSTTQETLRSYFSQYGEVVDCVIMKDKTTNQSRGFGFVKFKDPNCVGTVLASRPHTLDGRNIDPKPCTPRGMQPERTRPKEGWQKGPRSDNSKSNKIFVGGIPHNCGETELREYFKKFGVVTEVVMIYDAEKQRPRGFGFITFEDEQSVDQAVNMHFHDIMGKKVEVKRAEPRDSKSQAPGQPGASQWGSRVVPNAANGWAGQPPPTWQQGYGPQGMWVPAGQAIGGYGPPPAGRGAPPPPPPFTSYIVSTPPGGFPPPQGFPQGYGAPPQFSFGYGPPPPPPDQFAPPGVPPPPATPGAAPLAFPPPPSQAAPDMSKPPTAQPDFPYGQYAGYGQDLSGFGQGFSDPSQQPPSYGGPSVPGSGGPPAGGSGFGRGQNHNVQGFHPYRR
UniProt Q66K64, whole entry: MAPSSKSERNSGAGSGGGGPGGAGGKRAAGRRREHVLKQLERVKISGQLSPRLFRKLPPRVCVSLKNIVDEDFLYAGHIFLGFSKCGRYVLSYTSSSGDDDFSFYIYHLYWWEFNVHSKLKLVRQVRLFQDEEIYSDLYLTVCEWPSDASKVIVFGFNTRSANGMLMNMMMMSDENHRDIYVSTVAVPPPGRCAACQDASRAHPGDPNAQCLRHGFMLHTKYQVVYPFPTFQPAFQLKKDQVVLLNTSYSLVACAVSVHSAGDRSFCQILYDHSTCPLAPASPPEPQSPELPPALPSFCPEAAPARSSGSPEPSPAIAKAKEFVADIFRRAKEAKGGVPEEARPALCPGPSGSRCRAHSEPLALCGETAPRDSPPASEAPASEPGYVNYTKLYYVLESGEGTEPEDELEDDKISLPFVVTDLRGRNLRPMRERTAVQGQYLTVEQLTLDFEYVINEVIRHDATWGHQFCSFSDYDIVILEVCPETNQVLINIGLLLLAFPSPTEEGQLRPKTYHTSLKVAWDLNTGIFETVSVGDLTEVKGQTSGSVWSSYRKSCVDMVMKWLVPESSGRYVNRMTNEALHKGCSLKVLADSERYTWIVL
UniProt Q5QP82: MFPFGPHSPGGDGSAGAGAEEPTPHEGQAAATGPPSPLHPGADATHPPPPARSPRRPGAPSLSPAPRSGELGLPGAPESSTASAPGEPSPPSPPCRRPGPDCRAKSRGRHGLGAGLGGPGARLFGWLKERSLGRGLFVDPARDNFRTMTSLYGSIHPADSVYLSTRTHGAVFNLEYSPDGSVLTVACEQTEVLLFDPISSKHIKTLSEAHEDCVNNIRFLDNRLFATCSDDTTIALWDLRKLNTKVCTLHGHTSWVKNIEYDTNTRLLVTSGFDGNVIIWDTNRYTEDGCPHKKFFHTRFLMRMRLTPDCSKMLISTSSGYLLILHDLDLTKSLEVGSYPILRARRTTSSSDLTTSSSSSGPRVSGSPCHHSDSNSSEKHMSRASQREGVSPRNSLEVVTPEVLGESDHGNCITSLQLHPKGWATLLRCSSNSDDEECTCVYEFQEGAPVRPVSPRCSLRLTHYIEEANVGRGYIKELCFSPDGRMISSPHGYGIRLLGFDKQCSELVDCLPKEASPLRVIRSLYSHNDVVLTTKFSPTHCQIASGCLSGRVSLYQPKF
UniProt Q96C86: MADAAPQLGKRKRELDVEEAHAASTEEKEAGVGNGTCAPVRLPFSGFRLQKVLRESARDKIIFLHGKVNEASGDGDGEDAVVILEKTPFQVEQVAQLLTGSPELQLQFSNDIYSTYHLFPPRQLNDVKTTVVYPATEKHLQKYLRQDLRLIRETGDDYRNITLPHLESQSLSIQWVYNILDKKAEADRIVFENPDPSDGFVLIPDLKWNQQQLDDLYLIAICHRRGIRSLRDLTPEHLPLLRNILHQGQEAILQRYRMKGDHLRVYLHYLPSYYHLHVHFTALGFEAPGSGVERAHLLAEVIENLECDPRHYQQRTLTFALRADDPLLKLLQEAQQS
UniProt Q6PI48: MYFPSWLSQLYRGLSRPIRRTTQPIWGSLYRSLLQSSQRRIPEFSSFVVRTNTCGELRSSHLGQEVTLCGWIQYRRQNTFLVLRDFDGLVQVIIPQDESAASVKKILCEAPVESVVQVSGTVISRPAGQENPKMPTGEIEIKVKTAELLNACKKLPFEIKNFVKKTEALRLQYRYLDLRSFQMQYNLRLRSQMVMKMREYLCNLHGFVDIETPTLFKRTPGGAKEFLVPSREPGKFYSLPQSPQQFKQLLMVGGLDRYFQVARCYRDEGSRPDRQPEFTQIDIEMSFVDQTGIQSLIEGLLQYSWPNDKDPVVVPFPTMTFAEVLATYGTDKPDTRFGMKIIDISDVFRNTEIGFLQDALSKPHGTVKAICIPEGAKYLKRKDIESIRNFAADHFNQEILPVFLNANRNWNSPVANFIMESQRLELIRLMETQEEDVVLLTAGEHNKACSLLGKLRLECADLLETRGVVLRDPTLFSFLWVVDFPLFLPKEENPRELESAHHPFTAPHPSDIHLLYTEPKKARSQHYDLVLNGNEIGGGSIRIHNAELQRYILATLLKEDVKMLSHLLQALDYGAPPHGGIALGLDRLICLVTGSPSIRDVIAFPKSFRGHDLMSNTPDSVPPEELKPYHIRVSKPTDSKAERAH
UniProt Q7L576: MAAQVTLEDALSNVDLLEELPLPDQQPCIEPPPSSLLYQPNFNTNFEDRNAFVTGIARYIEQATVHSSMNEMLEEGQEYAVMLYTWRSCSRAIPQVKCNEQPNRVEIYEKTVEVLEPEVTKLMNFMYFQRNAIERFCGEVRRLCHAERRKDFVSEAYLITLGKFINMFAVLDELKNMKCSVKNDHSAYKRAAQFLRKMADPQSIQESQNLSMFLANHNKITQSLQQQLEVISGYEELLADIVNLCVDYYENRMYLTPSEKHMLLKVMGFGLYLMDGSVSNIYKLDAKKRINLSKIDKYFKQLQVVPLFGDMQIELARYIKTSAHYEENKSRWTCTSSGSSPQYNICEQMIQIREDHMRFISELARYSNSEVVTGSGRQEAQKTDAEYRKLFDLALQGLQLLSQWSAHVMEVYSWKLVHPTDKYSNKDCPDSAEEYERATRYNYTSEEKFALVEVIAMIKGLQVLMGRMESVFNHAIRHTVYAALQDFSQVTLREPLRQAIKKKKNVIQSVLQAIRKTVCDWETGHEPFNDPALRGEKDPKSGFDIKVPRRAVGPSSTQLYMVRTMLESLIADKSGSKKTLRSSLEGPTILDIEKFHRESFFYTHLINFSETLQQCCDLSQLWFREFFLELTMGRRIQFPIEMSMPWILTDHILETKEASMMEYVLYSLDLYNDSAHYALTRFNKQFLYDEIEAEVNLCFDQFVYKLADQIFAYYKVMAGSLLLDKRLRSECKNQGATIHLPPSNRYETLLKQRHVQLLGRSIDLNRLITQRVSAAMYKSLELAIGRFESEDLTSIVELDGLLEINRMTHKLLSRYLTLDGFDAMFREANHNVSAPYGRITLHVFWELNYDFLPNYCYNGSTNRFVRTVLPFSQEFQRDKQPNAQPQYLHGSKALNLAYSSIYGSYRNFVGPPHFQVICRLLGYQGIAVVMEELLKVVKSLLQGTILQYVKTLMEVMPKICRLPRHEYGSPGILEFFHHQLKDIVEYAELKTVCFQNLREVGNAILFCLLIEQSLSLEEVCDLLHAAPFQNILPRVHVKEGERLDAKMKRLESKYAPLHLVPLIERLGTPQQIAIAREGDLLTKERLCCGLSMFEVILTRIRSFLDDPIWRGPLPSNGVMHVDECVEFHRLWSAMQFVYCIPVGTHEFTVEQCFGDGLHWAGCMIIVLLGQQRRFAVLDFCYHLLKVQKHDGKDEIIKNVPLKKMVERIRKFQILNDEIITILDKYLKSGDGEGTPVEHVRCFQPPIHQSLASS

Target | probe-labelled cysteine peptide fold change (10 µM) | probe-labelled cysteine peptide fold change (50 µM)
CUL1_Q13616_149_RECDEGR (UniProt Q13616) | -0.162 | 0.248
CUL4B_Q13620_292+297_CWQNHCR (UniProt Q13620) | -0.0771 | 0.145
CTSL_P07711_322_NHCGIASAASYPTV (UniProt P07711) | -0.179 | -0.234
DCAF8_Q5TAQ9_273_VAELSATQCCK (UniProt Q5TAQ9) | -0.261 | -0.433
DAZAP1_Q96EP5_85_NIDPKPCTPR (UniProt Q96EP5) | 0.0293 | -0.209
DCAF15_Q66K64_211_AHPGDPNAQCLR (UniProt Q66K64) | 0.0803 | 0.174
DCAF10_Q5QP82_102_RPGPDCR (UniProt Q5QP82) | -0.255 | -0.267
DCPS_Q96C86_37_EAGVGNGTCAPVR (UniProt Q96C86) | -0.318 | -0.204
CUL1_Q13616_137_VLNGICAYLNR (UniProt Q13616) | -0.0914 | 0.0528
DAXX_Q9UER7_131_LYVYINELCTVLK (UniProt Q9UER7) | 0.106 | -0.0447
DARS2_Q6PI48_371_AICIPEGAK (UniProt Q6PI48) | -0.0513 | 0.0223
DAP3_P51398_356_EFESCIQYYLENNWLQHEK (UniProt P51398) | -0.143 | -0.0749
CYFIP1_Q7L576_519_TVCDWETGHEPFNDPALRGEK (UniProt Q7L576) | -0.187 | 0.197
DAXX_Q9UER7_338_HLDLIYNFGCHLTDDYRPGVDPALSDPVLAR (UniProt Q9UER7) | 0.00994 | 0.202
DCAF1_Q9Y4B6_1297_TFHLLHTVPALDQCR (UniProt Q9Y4B6) | 0.309 | 0.631

Given comma-delimited: part of the list above
Target,probe-labelled cysteine peptide fold change (10 µM),probe-labelled cysteine peptide fold change (50 µM)
DCAF10_Q5QP82_102_RPGPDCR (UniProt Q5QP82),-0.255,-0.267
DCPS_Q96C86_37_EAGVGNGTCAPVR (UniProt Q96C86),-0.318,-0.204
